Measurements: patent US20030119013A1, “Identification of essential genes of Aspergillus fumigatus and methods of use” (priority 2001, published 2003)
For at least one compound, name, drawing or mass did not settle the structure.

Legend:
[1] = tested on: wild-type Aspergillus fumigatus strain CEA 10; assay: Azole sensitivity on agar gradient plates, wild-type strain; format: cell-based; details: versus AfERG11 and AfERG11β knockout strains
From the text: (§1) Aspergillus fumigatus strains were constructed in which either the AfERG11 gene or the AfERG11β gene had been “knocked out.” Each of these strains was compared to the wild-type Aspergillus fumigatus strain CEA 10 with respect to its sensitivity, as analyzed on agar gradient plates, to two representative azole compounds, ketoconazole and itraconazole.

[2] = tested on: AfERG11β knockout strain and AfERG11α knockout strain; assay: Azole sensitivity on agar gradient plates, knockout strains; format: cell-based, Aspergillus fumigatus
From the text: as §1

CCC(C)n1ncn(-c2ccc(N3CCN(c4ccc(OCC5COC(Cn6cncn6)(c6ccc(Cl)cc6Cl)O5)cc4)CC3)cc2)c1=O (centres unmarked) [itraconazole]
resistance of wild-type strain CEA 10 compared with either knockout strain [1]: more resistant | resistance of AfERG11β knockout strain compared with AfERG11α knockout strain [2]: more resistant
